Data from publication PMC10413355.
These are yes or no findings as the source states them, for the method shown. In cells and extracts the contact can be indirect. Some results given as binding are weak or reduced against the parent protein; the word gives no strength. Where a sequence is shown, tags or fusion partners need not be part of it.

The chains behind the UniProt entries cited, without tags or fusion partners. Residues count along the entry.
UniProt P47871, residues 26-477: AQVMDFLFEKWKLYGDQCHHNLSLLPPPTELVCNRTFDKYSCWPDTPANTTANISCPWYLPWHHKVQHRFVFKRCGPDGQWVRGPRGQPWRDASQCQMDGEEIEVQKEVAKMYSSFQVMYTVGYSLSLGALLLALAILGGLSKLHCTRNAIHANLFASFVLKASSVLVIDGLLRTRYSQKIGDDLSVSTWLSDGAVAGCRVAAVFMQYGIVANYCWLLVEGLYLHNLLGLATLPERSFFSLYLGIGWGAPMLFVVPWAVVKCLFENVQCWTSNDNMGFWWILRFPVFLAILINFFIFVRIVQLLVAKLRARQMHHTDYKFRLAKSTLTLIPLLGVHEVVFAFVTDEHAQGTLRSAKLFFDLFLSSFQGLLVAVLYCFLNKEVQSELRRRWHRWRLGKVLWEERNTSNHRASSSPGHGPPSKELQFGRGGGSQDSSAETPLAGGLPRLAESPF

Target: human glucagon receptor-GFP (human) (UniProt P47871)
Assay: co-IP; HEPG2 cells co-transfected with ARRDC4-C-Myc/FLAG and glucagon receptor-GFP (or receptor + empty vector), with or without glucagon (200 nM, 15 min); 500 ug lysate in 50 mM Tris-HCl, 500 mM NaCl, 1 mM EDTA, 1% Triton X-100, pH 7.4, on anti-FLAG or anti-GFP magnetic beads, 1 h at 4 °C; eluted with FLAG or GFP peptide; blotted for GFP and FLAG

B1: human arrestin domain-containing 4 (ARRDC4) protein, C-Myc/FLAG-tagged (protein, UniProt Q8NCT1 1-418)
chain: MGGEAGCAAAVGAEGRVKSLGLVFEDERKGCYSSGETVAGHVLLEASEPVALRALRLEAQGRATAAWGPSTCPRASASTAALAVFSEVEYLNVRLSLREPPAGEGIILLQPGKHEFPFRFQLPSEPLVTSFTGKYGSIQYCVRAVLERPKVPDQSVKRELQVVSHVDVNTPALLTPVLKTQEKMVGCWFFTSGPVSLSAKIERKGYCNGEAIPIYAEIENCSSRLIVPKAAIFQTQTYLASGKTKTIRHMVANVRGNHIASGSTDTWNGKTLKIPPVTPSILDCCIIRVDYSLAVYIHIPGAKKLMLELPLVIGTIPYNGFGSRNSSIASQFSMDMSWLTLTLPEQPEAPPNYADVVSEEEFSRHIPPYPQPPNCEGEVCCPVFACIQEFRFQPPPLYSEVDPHPSDVEESQPVSFIL
- binding: binds
